Sequences of proteins named here, by UniProt entry; tags and fusion partners are left off.
UniProt Q96J77: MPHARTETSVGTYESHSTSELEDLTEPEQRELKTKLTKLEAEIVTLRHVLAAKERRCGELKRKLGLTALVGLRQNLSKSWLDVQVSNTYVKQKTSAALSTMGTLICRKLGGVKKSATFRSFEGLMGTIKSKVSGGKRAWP
UniProt P25963: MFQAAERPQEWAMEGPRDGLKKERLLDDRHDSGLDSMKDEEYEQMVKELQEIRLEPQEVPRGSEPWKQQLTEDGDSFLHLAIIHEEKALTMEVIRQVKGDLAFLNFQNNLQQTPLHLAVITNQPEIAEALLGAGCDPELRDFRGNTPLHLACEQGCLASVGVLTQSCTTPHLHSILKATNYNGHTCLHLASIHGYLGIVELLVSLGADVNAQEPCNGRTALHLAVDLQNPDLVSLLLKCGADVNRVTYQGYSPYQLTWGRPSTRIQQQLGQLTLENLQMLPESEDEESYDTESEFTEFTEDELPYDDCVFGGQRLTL

In paper PMC9217950:

Experiments:
Assay in all cases: proximity labelling; CF-PPiD on the 20 K human protein beads array: 19,712 FG-tagged human proteins as dual spots on 27 1536-well plates; AirID-IκBα translational mixture with biotin and ATP; signals normalised to RelA on each plate; only the target purified
[1] = biological target: T1, FLAG-GST-propionyl-CoA carboxylase subunit alpha (PCCA) (human) (UniProt P05165)
T1 sequence: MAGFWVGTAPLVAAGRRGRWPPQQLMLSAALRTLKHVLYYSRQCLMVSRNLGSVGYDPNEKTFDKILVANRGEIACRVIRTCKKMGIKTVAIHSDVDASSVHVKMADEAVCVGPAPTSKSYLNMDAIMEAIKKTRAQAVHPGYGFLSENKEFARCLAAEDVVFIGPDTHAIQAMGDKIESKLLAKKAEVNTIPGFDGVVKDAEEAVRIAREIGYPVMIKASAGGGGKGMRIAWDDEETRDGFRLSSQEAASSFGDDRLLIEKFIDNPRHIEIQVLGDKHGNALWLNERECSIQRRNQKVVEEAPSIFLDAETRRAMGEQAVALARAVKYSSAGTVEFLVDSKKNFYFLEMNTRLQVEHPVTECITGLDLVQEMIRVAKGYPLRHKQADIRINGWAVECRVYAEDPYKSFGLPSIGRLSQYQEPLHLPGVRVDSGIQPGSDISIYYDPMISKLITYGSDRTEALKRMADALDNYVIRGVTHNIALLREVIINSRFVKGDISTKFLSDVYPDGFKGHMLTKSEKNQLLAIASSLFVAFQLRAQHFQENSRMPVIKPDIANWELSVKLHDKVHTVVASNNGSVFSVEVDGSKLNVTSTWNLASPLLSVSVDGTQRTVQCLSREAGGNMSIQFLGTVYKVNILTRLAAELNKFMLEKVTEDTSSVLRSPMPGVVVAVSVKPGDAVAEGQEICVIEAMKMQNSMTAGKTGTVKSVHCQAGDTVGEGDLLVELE

[2] = biological target: FLAG-GST-TPD52L3 (20 K human protein beads array) (human) (UniProt Q96J77)
[3] = biological target: T2, FLAG-GST-pyruvate carboxylase (PC) (human) (UniProt P11498)
T2 sequence: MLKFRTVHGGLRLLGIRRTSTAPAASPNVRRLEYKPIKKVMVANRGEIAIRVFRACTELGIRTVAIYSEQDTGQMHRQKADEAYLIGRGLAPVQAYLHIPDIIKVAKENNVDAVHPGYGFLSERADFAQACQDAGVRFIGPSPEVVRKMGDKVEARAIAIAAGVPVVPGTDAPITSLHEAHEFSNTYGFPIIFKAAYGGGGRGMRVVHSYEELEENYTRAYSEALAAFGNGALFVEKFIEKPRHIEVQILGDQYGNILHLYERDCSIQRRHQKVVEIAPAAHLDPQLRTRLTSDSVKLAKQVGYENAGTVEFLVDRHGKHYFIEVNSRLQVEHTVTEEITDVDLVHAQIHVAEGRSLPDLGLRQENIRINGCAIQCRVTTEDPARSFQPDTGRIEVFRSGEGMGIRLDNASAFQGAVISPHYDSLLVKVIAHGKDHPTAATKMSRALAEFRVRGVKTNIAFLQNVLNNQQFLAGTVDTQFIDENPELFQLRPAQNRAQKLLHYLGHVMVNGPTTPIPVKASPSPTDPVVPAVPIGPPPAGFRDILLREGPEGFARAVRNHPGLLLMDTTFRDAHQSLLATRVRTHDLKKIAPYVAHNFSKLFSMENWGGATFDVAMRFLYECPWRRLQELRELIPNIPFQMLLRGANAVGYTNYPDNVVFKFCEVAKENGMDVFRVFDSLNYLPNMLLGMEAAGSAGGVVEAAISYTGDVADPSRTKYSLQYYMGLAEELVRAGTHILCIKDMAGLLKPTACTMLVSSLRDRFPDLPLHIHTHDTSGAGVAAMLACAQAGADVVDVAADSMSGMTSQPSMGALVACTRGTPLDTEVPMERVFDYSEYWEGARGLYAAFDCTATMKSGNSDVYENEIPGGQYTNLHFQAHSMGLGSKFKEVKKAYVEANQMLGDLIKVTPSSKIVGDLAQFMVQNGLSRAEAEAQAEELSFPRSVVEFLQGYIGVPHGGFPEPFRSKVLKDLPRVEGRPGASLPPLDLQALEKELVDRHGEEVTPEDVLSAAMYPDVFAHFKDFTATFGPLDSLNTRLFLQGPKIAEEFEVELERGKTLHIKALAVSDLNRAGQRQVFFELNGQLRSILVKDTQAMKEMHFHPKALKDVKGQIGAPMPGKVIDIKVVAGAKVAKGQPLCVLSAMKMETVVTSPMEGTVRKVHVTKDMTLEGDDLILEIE

binding [1]: no binding
binding [2]: binds
binding [3]: no binding
Substance: AirID N-terminally fused to IκBα (from UniProt P25963 1-317)

Results are given in words; binding and its absence hold for the method and conditions named. In cells and extracts the contact can be indirect. Here binding means that the protein was enriched with, or labelled near, the bait; the list need not be complete. For part of these data: No binding means not detected with the bait. For part of these data: Tags and fused reporters may be left off the sequences shown.
